Taken from: PubChem BioAssay AID1259308 (NCATS, 2017)
The deposit covers about 59,000 reagents; below is an unselected part. About 1,510 of all reagents (2.6%) count as active. 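Calls use total luciferase alone and ignore viability, so some active siRNAs may act by altering cell number.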 The numbers tell different reagents against one gene apart.

- Purpose: 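Knock-downs that increase output of a recombinant reporter protein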 (primary screen)
- Cell system: human HEK293 embryonic kidney cells stably expressing firefly luciferase (HEK-CMV-Luc2-Hygro)
- Reagent: single siRNA against human genes, 0.8 pmol siRNA per well
- Duration: 72 h
- Measurement: 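Luciferase light (ONE-Glo) measured on one replicate plate set and viability (CellTiter-Glo) on the other, scaled to a negative control siRNA, with robust z-scores and luciferase per cell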
- Reading the numbers: total luciferase, z-score and total luciferase, % of control: higher = more reporter protein produced; luciferase per cell, z-score: higher = more reporter output per viable cell; viable cells, % of control: higher = more viable cells
- Call rule: 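An siRNA counts as active if its total luciferase robust z-score exceeds 3; genes with two or more such siRNAs out of three were retested with fresh siRNAs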
- Meaning of the calls: active = raised luciferase; inactive = no rise

no.	target	siRNA no.	total luciferase, z-score	total luciferase, % of control	luciferase per cell, z-score	viable cells, % of control	call
1	SMPD3	1	0.218	86.2	0.274	89.7	inactive
2	SMPD3	2	-1.15	59	-1.62	101	inactive
3	SMPD3	3	0.127	84.4	0.988	72.7	inactive
4	PCNX2	1	0.32	88.2	-0.128	102	inactive
5	PCNX2	2	-0.458	72.8	-0.897	103	inactive
6	PCNX2	3	-0.989	62.2	-1.44	102	inactive
7	C9orf72	1	-0.754	66.9	-0.708	90.1	inactive
8	C9orf72	2	-1.15	58.9	-1.21	90.5	inactive
9	C9orf72	3	-0.164	78.6	0.597	75.1	inactive
10	PPP3CB	1	2.11	124	2.32	75.1	inactive
11	PPP3CB	2	-1.54	51.3	-2.23	103	inactive
12	PPP3CB	3	0.0697	83.3	-0.232	98.9	inactive
13	FTO	1	0.887	99.5	0.991	85.7	inactive
14	FTO	2	-0.924	63.5	-0.171	74.2	inactive
15	FTO	3	-0.38	74.3	0.6	70.9	inactive
16	ALG1	1	0.972	101	1.31	80	inactive
17	ALG1	2	-0.699	68	-0.797	93.7	inactive
18	ALG1	3	-0.0136	81.6	0.0553	89.9	inactive
19	SPP2	1	0.337	88.6	0.433	88.3	inactive
20	SPP2	2	0.264	87.1	1.52	65.2	inactive
21	SPP2	3	-0.369	74.5	-0.522	95.6	inactive
22	PDHX	1	-0.743	67.1	-0.357	82.4	inactive
23	PDHX	2	1.05	103	0.492	101	inactive
24	PDHX	3	-0.418	73.6	-0.782	101	inactive
25	LINC02667	1	-0.484	72.3	-0.0941	82.8	inactive
26	LINC02667	2	-1.77	46.7	-2.21	93.4	inactive
27	LINC02667	3	-2.11	39.9	-1.89	73.3	inactive
28	METTL6	1	-0.591	70.1	-0.196	82.5	inactive
29	METTL6	2	-0.763	66.7	-0.741	90.6	inactive
30	METTL6	3	2.09	123	1.93	83	inactive
31	FURIN	1	-2.56	31	-3.02	76.7	inactive
32	FURIN	2	-0.607	69.8	0.0685	76.6	inactive
33	FURIN	3	-1.62	49.7	-1.01	72.4	inactive
34	BPNT2	1	0.713	96.1	0.691	89.5	inactive
35	BPNT2	2	-1.23	57.3	-0.897	81.1	inactive
36	BPNT2	3	0.175	85.4	0.894	75.4	inactive
37	HINFP	1	6.59	213	4.05	82	active
38	HINFP	2	-1.78	46.5	-1.64	79.9	inactive
39	HINFP	3	0.0383	82.6	-0.265	99	inactive
40	ISLR	1	-0.742	67.1	-0.632	88.6	inactive
41	ISLR	2	-0.183	78.3	-0.228	92.9	inactive
42	ISLR	3	-0.548	71	-1.13	107	inactive
43	DAZL	1	-0.652	68.9	-0.766	94.2	inactive
44	DAZL	2	-1.68	48.4	-0.705	65.2	inactive
45	DAZL	3	0.431	90.5	-0.18	106	inactive
46	RGPD4-DT	1	-0.362	74.7	-0.574	97.1	inactive
47	RGPD4-DT	2	-0.0302	81.3	0.224	85.6	inactive
48	RGPD4-DT	3	0.718	96.2	0.563	92.6	inactive
49	RASGRF1	1	0.199	85.8	0.878	76.1	inactive
50	RASGRF1	2	0.619	94.2	1.2	76.7	inactive
51	RASGRF1	3	-0.199	77.9	-0.563	101	inactive
52	ZC3H13	1	-1.6	50	-2.46	107	inactive
53	ZC3H13	2	-1.61	49.9	-1.99	94.2	inactive
54	ZC3H13	3	-1.77	46.8	-2.99	115	inactive
55	NAA50	1	1.08	103	1.12	86	inactive
56	NAA50	2	0.753	96.9	0.0129	108	inactive
57	NAA50	3	0.92	100	1.39	77.7	inactive
58	PRELP	1	0.364	89.1	0.0359	98.7	inactive
59	PRELP	2	-0.361	74.7	-0.503	95.3	inactive
60	PRELP	3	-0.143	79	-0.112	91	inactive
61	CENPQ	1	0.555	92.9	-0.0788	106	inactive
62	CENPQ	2	0.227	86.4	-0.158	101	inactive
63	CENPQ	3	0.194	85.7	-0.323	104	inactive
64	MPST	1	-1	62	-1.72	109	inactive
65	MPST	2	0.236	86.6	0.411	86.8	inactive
66	MPST	3	2.62	134	2.84	70.9	inactive
67	UBA6	1	-0.636	69.2	0.399	69.7	inactive
68	UBA6	2	-1.5	52.1	-1.18	79.6	inactive
69	UBA6	3	-0.706	67.8	-0.858	95	inactive
70	DEFB131A	1	0.161	85.1	-0.214	101	inactive
71	DEFB131A	2	0.656	94.9	1.43	72.8	inactive
72	DEFB131A	3	-1.09	60.2	-1.06	88.9	inactive
73	AOAH	1	-1.14	59.2	-0.278	71.1	inactive
74	AOAH	2	0.747	96.7	0.902	85.3	inactive
75	AOAH	3	-0.306	75.8	-0.206	89.4	inactive

Reagents above called active, once more:
target	siRNA no.	total luciferase, z-score	total luciferase, % of control	luciferase per cell, z-score	viable cells, % of control	call
HINFP	1	6.59	213	4.05	82	active
